Results on one molecule are retold here after paper doi:10.1101/2023.09.01.555900 (bioRxiv, 2023).

Results are given in words; binding and its absence hold for the method and conditions named.

The assay has as its target Rof (Rho-off, also called YaeO) (E. coli) (UniProt P0AFW8). The assay can be described thus: SEC.

B1: Rof (Rho-off, also called YaeO) (natural protein, E. coli)
chain: MNDTYQPINCDDYDNLELACQHHLMLTLELKDGEKLQAKASDLVSRKNVEYLVVEAAGETRELRLDKITSFSHPEIGTVVVSES
Consider B1, for which the binding result is “no binding”.
